Source: patent publication US20240254219A1 (University of California, published 2024)
These are yes or no findings as the source states them, for the method shown. Some results given as binding are weak or reduced against the parent protein; the word gives no strength.

Target: T1, LRP6 P3E3P4E4 truncation construct on HEK293 cells (human) (UniProt O75581)
T1 sequence (looked up): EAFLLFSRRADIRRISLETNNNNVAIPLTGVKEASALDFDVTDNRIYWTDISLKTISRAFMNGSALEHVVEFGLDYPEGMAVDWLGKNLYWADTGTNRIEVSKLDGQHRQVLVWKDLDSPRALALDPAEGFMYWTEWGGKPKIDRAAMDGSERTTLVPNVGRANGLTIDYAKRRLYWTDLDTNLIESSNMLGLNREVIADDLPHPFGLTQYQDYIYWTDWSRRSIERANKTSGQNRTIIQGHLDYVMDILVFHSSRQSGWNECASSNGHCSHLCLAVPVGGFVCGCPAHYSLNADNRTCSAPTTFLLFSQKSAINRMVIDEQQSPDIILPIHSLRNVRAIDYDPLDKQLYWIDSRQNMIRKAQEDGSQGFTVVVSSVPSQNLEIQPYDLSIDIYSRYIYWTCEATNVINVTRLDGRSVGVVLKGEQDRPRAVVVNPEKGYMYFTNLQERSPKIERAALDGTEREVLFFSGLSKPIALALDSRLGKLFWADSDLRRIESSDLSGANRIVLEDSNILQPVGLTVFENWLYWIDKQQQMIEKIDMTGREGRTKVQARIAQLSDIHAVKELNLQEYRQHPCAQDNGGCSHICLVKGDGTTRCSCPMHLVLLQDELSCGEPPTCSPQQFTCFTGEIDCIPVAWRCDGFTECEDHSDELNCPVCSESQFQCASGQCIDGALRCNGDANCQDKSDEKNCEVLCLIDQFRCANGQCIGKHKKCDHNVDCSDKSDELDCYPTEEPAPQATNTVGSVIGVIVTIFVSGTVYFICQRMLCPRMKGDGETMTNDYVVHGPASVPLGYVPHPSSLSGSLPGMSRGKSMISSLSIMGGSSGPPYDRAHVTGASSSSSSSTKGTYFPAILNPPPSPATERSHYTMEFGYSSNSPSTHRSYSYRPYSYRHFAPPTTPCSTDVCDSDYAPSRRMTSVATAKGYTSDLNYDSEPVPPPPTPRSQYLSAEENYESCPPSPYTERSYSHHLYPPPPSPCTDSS
Assay: flow cytometry on GFP-positive HEK293 cells co-transfected with the LRP6 construct and a GFP construct

B1: 66 IgG (Wnt-agonist human monoclonal antibody 66) (antibody, V domains shown)
VH: QVQLLQSGGGLVQPGGSLRLSCAASGFTFSTYAMSWVRQAPGKGLEWVSTIGPSGSSTYYAYADSVKGRFTISRDNYKNMLYLQMNSLRAEDTAVYYCAKEGPNSGYFDFDYWGQGTLVTVSS
VL: EIVLTQSPSSLSASVGDRVTITCRASQSISTYLNWYQQKPGKAPKVLIYAASSLQSGVPSRISGSGSGTDFTLTISSLQPEDFATYYCQQSYSIPLTFGGGTKLEIK
notes: also called 66 antibody; agonist 66 IgG
With B1 the binding was “binds”.
